Results are given in words; binding and its absence hold for the method and conditions named. Some results given as binding are weak or reduced against the parent protein; the word gives no strength. Where a sequence is shown, tags or fusion partners need not be part of it.

The chains behind the UniProt entries cited, without tags or fusion partners.
UniProt P61077: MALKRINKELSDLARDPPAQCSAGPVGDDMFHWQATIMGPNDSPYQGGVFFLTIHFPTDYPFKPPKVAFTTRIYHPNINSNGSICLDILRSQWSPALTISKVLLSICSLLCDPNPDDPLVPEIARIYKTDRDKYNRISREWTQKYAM
UniProt P61081: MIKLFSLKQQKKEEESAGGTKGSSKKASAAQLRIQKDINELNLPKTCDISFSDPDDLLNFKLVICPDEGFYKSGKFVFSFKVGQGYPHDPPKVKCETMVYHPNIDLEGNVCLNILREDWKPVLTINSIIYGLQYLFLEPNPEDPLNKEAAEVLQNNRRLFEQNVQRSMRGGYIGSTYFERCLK
UniProt P61088: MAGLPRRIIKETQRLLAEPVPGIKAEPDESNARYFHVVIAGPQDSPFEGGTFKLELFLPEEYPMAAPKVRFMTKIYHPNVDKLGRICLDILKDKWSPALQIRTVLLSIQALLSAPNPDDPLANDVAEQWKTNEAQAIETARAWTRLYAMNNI

The assay deals with T1, LexA-axotrophin RING-variant domain fusion protein (pEG-axoCT, aa 552–682) (human) (UniProt Q9H992).
T1 sequence: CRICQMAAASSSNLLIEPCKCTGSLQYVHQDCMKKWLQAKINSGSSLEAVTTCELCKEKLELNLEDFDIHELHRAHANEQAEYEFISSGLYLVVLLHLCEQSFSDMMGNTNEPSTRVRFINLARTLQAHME
Briefly: two-hybrid; DupLEX (OriGene), nuclear; LexA fusion (pEG) as bait, activation-domain fusion (pJG) as prey; growth on leucine-deficient medium.
Regarding “E2 enzyme UbcH5c (from UniProt P61077 1-147)”, the binding entry was “binds”.

For the substance “neddylation E2 enzyme Ubc12 (from UniProt P61081 1-183)”, the binding result is on record as “binds weakly”. Under “protein phosphatase 2B (calcineurin) catalytic subunit, isoform PP2Bb (from UniProt P16298 1-524) (enzyme)” stands “binds”; under “ubiquitin chain elongating enzyme Ubc13 (from UniProt P61088 1-152)”, “binds weakly”.
